## Library screening results

Protein sequences, listed by entry. Tags and fused reporters are not part of them.
UniProt E9BF75, entry or part of it: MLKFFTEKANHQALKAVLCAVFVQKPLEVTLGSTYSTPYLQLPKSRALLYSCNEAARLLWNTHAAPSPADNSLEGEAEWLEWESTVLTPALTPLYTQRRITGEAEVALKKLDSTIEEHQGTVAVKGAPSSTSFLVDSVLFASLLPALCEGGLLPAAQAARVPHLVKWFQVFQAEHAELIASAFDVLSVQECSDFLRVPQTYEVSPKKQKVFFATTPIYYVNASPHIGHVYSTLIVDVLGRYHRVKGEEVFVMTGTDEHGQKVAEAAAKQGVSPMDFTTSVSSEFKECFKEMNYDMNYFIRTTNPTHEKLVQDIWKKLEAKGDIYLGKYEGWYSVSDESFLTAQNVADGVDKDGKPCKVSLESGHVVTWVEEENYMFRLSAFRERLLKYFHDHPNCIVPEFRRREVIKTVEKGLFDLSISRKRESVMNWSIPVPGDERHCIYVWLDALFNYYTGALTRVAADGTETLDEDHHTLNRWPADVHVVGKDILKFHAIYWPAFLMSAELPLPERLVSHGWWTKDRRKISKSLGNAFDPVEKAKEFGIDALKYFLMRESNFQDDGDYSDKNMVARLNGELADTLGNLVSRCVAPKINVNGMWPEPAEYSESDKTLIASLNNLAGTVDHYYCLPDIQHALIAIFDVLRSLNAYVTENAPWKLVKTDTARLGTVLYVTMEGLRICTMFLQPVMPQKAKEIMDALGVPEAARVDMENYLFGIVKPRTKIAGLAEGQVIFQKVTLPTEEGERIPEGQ

Source: ChEMBL document CHEMBL3988442, “University of Dundee, Small-Polar-MMV Screening Library” (2021).

Results are percentages, as filed. How 0% and 100% were set is not recorded. Most values in the screen are low, and negative values occur. Compounds were drawn at random from those tested, without regard to their results.

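Primary screen of methionyl-tRNA synthetase; the read-out is not stated. Target: Methionyl-tRNA synthetase (putative), Leishmania donovani (UniProt E9BF75). The test concentration is not given. Values are per cent inhibition. About 68,000 compounds were tested under these conditions; 0.035% (about 24) showed 50% or more at least once.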

Compound	Inhibition
O=C(CN1C(=O)c2ccccc2CS1(=O)=O)c1ccc(Cl)cc1	-14.67%
CC(=O)N1CCC(c2ccnc(Nc3ccc(C)cn3)n2)C1 (stereo not drawn)	3.125%
Cc1noc(C)c1CN(C)CCc1nc(-c2cccc(Cl)c2)no1	6.211%
Cc1cccc(COC[C@@]23CCC[C@@H]2CN(S(=O)(=O)N(C)C)C3)n1	10.47%
CCc1ccc(C2CCCCCN2C(=O)CNC(=O)NC2CC2)o1 (stereo not drawn)	13.04%
Cc1cc(C)nc(N2CCCC2c2[nH]ncc2C(=O)N(C)C)n1 (stereo not drawn)	13.83%
COc1ccc2c(c1)c(C(=O)Nc1n[nH]c(C(C)C)n1)cn2C(C)C	4.852%
COC[C@@]12CC[C@@H](N3CCOCC3)C[C@H]1CCN(c1nc(CO)cs1)C2	13.19%
Cc1ccc(C(=O)N2CC[C@@H]3[C@H]2CCC(=O)N3c2ccccc2)o1	14.98%
Cc1ncc(CN2CCCN(Cc3noc(C4CC4)n3)CC2)s1	2.793%
CC(=O)c1cc(Br)cc(F)c1OCC(=O)NC(C)C	10.9%
CS(=O)(=O)c1cnc(CC2CC2)nc1C1CCCNC1 (stereo not drawn)	2.452%
O=S1(=O)COCCN1CCOc1ccc(F)cc1	4.514%
COc1cc(NC(=O)N2CCCC2c2ccco2)cc(OC)c1 (stereo not drawn)	11.63%
CC(=O)N1CCC(Cc2cnc(-c3c(C)nn(C)c3C)cn2)C1 (stereo not drawn)	12.2%
CC(C)CC(N)C1=N/C(=C2\N=CN=N2)NO1 (stereo not drawn)	2.721%
Cc1cc(F)ccc1NC(=O)NCC(C)N1CCOCC1 (stereo not drawn)	4.632%
Cc1ccoc1C(=O)NCC(c1ccccc1Cl)N1CCOCC1 (stereo not drawn)	8.696%
CN1CC(=O)N(c2ccccc2)CC12CCN(Cc1cccnc1)C2 (stereo not drawn)	5.5%
N#Cc1ccc(C(=O)N2C[C@H](OCc3cccnc3)[C@H]3COC[C@H]32)cc1	2.03%
NC(=O)C1CCN(C(=O)NC2CCc3cc(Cl)ccc32)CC1 (stereo not drawn)	30.02%
CCCS(=O)(=O)N1CCN(CCCO)CC1	1.401%
O=S(=O)(NC1=NCN(CCc2cccs2)CN1)c1ccccc1	8.714%
O=C(Cc1cccc(F)c1)N1C[C@H]2CN(Cc3ccccn3)C[C@H]2C1	16.81%
O=C1O[C@@H]2CN(C3CCOCC3)C[C@@H]2N1CCCc1ccc(F)cc1	8.125%
Cc1nn(C)c(C)c1C1CCCN1Cc1nc2ccccc2n1C (stereo not drawn)	16.39%
c1ccc(Cc2noc(CNC3CCc4ncnn4C3)n2)cc1 (stereo not drawn)	15.56%
COC(=O)CCNC(=O)c1ccc(NC(=O)N(C)CC(C)(C)C)cc1	5.783%
COc1ccccc1-c1ncc(CN2CCCC(CCC(N)=O)C2)s1 (stereo not drawn)	11.29%
Cn1c(C2CC2)nc2c1CCN(CCOc1ccccc1C#N)C2	9.036%
Cc1cnc(CNS(=O)(=O)CCC2CCCO2)o1 (stereo not drawn)	11.33%
CC(C)(C)c1nnc(CSc2ccccn2)o1	6.534%
Cc1ccc(C(=O)Nc2nnc(C3CC3)s2)c(-n2cnnn2)c1C	16.13%
CC1N(c2cnn(C)c2)C(=O)COC12CCN(c1ccccn1)CC2 (stereo not drawn)	7.143%
O=c1cc(CN(CCO)C2CC2)nc2ccc(Br)cn12	12.21%
CC(C(=O)N1CCCC1)N1CCCN(C(=O)Oc2ccccc2)CC1 (stereo not drawn)	6.789%
CCC(CC)C(=O)NCCc1ccn(-c2ccccc2)n1	16.39%
CC(C)NC(=O)N1CCOC2(CCCN(c3ncccc3F)C2)C1 (stereo not drawn)	1.603%
CCOCc1nn(C)c2c1CN(C(=O)c1ccno1)CC2	12.8%
CCN(Cc1ccc(N(C)C)cc1)S(=O)(=O)c1cc(Br)ccc1OC	10.34%
Cn1nc(Cn2cccc2)c2c1CN(Cc1ccsc1)C2	26.22%
O=C(c1cc(-c2ccco2)cs1)N1CCOCC1	16.43%
Cc1ccc(NC(=O)Cn2ncc(SCC(N)=O)c(Cl)c2=O)cc1	10.06%
Cc1ccc(C(C)N(C)Cc2nc3c(cnn3C)c(=O)[nH]2)cc1 (stereo not drawn)	11.75%
Cc1nn(-c2ccccc2)c(C)c1-c1ccnc(N2CCCNCC2)n1	9.6%
Cc1oc(C)c(C(=O)NCc2ccccn2)c1C	14.29%
Cc1cc(CNC(=O)c2cn(CCC3CCCCN3)nn2)on1 (stereo not drawn)	16.36%
CCOc1cc(CNCc2nc(C)cc(=O)[nH]2)c(Cl)cc1OC(C)C	20.32%
COCCn1/c(=N\C(=O)CN(C)S(C)(=O)=O)sc2cc(OC)ccc21	7.453%
CC(C)(C(=O)O)S(=O)(=O)c1ccc(Br)cc1	10.08%
CC(C)C1CN(C(=O)c2ccn(C)c(=O)c2)c2ccccc2N1 (stereo not drawn)	11.49%
N#Cc1cc(NC(=O)c2ccncc2)ccc1N1CCC(O)CC1	15.76%
Cc1cc(C(=O)N2CCCC(C)C2)ccc1NCc1nc(C2CC2)no1 (stereo not drawn)	13.96%
COC(=O)C1CCN(C(=O)c2ccc(NS(C)(=O)=O)c(C)c2)CC1	8.148%
Cc1ccc(-c2nc(C(=O)N3CCN(C(=O)N(C)C)CC3)cs2)c(C)c1	17.46%
NC(=O)CCCNC(=O)COc1ccccc1C(F)(F)F	10.43%
CCc1ccc2c(C3CN(S(C)(=O)=O)C3)ncn2c1	8.377%
CCc1nnc2n1CCN(Cc1ncc(-c3ccccc3)o1)C2	8.197%
COc1ccc(S(=O)(=O)NCC(C)(O)c2cccs2)cc1Cl (stereo not drawn)	10.14%
CC(=O)N(C)c1nc(CN2CCN(c3nccs3)CC2)cs1	5.476%
CC[C@@]1(O)CCN(c2ncc(Cl)cc2F)C[C@H]1O	17.79%
CC(C)(C)NC(=O)c1ccc(COCC(F)(F)F)o1	12.14%
O=C1CC2(CCN(Cc3cccnc3)C2)CN1c1ccc2c(c1)OCO2 (stereo not drawn)	1.307%
CCc1cc(N[C@H]2CC[C@H](O)CC2)n2nc(C)c(C)c2n1	17.7%
COC1(CNC(=O)NCCc2ccccc2)CCSC1 (stereo not drawn)	12.93%
COc1ccc(CCN2CCC(N3CCN(C)C3=O)CC2)cc1	15.79%
CN(C)c1ncc2c(n1)CCCC2NC(=O)c1ccsc1 (stereo not drawn)	2.128%
CN(C(=O)CCc1cccs1)C1CCCN(C2Cc3ccccc3C2)C1 (stereo not drawn)	18.73%
O=C(C1CCCC1)N1CCCC1c1nnc2n1CCCCC2 (stereo not drawn)	7.357%
c1ccc(OCC2C[C@@H]3[C@@H](C2)OCCN3Cc2ccoc2)nc1 (stereo partly drawn)	11.48%
O=C(Cn1ccc2ccccc21)NC[C@@H]1CCCN2CCCC[C@H]12	7.494%
O=C(CSC1CCCC1)N1CCN(C(=O)C2CC2c2cccs2)CC1 (stereo not drawn)	12.71%
CC(C)c1nc(CN(C)C(=O)[C@H](N)Cc2ccc(Cl)cc2)cs1	4.802%
CCCOCCN1CCc2[nH]c(-c3ccc(OC)cc3)nc2C1	4.795%
Cc1ccc(NC(=O)N2CC[C@@H](O)C2)c(-c2nc(C3CC3)no2)c1	17.54%
CS(=O)(=O)c1ccc(-c2cc(O)cc(CCC3CCCCN3)c2)cc1 (stereo not drawn)	10.67%
Cc1nc2c(c(N3CCC(CCn4cccn4)CC3)n1)CCNCC2	10.65%
CC(C)(C)C(=O)NC(c1nccs1)C1CCN(CC2CCCCC2)CC1 (stereo not drawn)	3.15%
O=C1NCCC12CN(CC1CC1)CC21CCNCC1 (stereo not drawn)	12.78%
Cc1ccc(NC2CCN(C(=O)C(C(C)C)n3cncn3)CC2)nn1 (stereo not drawn)	13.89%
Cc1nc(O)cc(CCNC(=O)c2ccc(CN3CCCCC3)cc2)n1	8.052%
O=C(NCC(Cc1cccc(F)c1)N1CCCC1=O)c1ccccc1 (stereo not drawn)	7.389%
O=C(c1ccon1)N1CCCCC1c1nc2cc(F)ccc2[nH]1 (stereo not drawn)	7.649%
CN1CC(=O)N(c2ccsc2)CC12CCN(Cc1nccn1C)C2 (stereo not drawn)	11.35%
Cc1cc(C)c2c(c1)C(NC(=O)CSCC(N)=O)CCO2 (stereo not drawn)	13.54%

Some entries from above, unchanged:

Compound	Inhibition
O=C(CN1C(=O)c2ccccc2CS1(=O)=O)c1ccc(Cl)cc1	-14.67%
Cc1cnc(CNS(=O)(=O)CCC2CCCO2)o1 (stereo not drawn)	11.33%
O=S(=O)(NC1=NCN(CCc2cccs2)CN1)c1ccccc1	8.714%
Cc1cc(C)c2c(c1)C(NC(=O)CSCC(N)=O)CCO2 (stereo not drawn)	13.54%
CC(C)(C)C(=O)NC(c1nccs1)C1CCN(CC2CCCCC2)CC1 (stereo not drawn)	3.15%
O=c1cc(CN(CCO)C2CC2)nc2ccc(Br)cn12	12.21%
CCOc1cc(CNCc2nc(C)cc(=O)[nH]2)c(Cl)cc1OC(C)C	20.32%
Cc1nn(C)c(C)c1C1CCCN1Cc1nc2ccccc2n1C (stereo not drawn)	16.39%